Laboratory results published in patent US11382848B2, “Compounds reducing malodour perception and the use thereof” (CHEMCOM S.A., priority 2017, dated 2022).

The chains behind the UniProt entries cited, without tags or fusion partners.
UniProt Q8NG98, whole entry: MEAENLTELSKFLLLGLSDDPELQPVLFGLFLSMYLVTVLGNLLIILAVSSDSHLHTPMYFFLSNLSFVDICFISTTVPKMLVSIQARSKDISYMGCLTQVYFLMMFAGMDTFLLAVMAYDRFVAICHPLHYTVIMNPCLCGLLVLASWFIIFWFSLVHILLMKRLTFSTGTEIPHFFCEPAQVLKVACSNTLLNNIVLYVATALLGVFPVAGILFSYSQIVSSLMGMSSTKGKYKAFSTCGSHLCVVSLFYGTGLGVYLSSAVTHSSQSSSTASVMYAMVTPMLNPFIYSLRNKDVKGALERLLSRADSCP

Target: human olfactory receptor OR7D4 (Homo sapiens, UniProt Q8NG98)
Test: OR7D4 luciferase gene reporter assay (antagonism of agonist-induced activation)
Settings: read-out: IC50 (micromolar), dose-response, half decrease of the luciferase production obtained without antagonist, androstenone at 31.6 micromolar
Procedure: Cells were maintained in minimal essential medium (EMEM, Lonza) containing 10% fetal bovine serum (M10). HEK293T stably expressing olfactory chaperone proteins from the RTP family as described in WO 2006/002161 (introduced here as a reference) were generated by transfecting HEK293T cells with expression vector containing the chaperone gene sequences and a resistance gene to puromycin, using Lipofectamine 2000. A recombinant cell population was selected by adding 10 μg/ml of puromycin into the culture medium. Monoclonal populations were further obtained by limit dilution procedure. […]
Briefly, cells were plated on poly-D-lysine-coated 96-well plates (BD Bioscience, Erembodegem-Dorp, Belgium) and transfected with a plasmid containing CRE-luciferase and a plasmid containing OR7D4. Sixteen hours after transfection, the culture medium was replaced by serum-free EMEM containing the tested ligands at a determined concentration. After four hours of incubation at 37° C. degree, cells were lysed and processed for luminescence measurement according to the manufacturer's protocols. Luminescence emission was recorded on a Spectra Max M5 reader (Molecular Devices, Sunnyvale, Calif.). Results were expressed as percentage of the response induced by 10 μM of the adenylate cyclase activator Forskolin. […]

## CCCCCC(=C\c1ccccc1)/C=C(\C)C(N)=O
  IC50: 11 µM

## CCCCCC(=C\c1ccccc1)/C=C(\C)C(=O)OCC
  IC50: 1 µM

Structures were worked out from names or drawings and are uncertain.
